# Reference: patent US20250282824A1, “Inhibitors of the Wnt Signaling Pathway and Uses Thereof” (Stichting VU, priority 2021, published 2025)
# By UniProt entry, the sequences of proteins in these tests, tags left out.
# UniProt P35222, whole entry: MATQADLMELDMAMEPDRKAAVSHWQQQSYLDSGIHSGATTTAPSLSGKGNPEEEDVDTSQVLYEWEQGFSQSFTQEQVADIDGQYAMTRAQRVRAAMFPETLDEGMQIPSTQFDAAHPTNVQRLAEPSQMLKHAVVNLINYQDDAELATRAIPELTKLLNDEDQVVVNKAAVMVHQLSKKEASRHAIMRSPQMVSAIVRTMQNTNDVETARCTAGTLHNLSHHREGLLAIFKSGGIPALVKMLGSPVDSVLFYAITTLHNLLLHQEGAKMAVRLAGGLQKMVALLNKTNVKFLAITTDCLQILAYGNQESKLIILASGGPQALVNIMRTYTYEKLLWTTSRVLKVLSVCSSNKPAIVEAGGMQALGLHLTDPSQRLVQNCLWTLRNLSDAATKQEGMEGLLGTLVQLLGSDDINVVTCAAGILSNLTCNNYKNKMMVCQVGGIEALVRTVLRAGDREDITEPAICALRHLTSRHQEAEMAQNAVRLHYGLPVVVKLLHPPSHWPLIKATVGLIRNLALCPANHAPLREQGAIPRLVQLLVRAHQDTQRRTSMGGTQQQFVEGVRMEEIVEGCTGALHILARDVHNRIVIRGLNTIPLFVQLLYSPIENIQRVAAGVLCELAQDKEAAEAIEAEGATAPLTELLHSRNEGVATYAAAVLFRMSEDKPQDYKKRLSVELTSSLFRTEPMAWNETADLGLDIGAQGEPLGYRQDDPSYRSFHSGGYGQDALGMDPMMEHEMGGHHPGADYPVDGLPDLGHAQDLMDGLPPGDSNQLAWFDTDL
# For some of these results: At least one peptide structure holds a part that was inferred or is arguable (an end, a ring closure or a residue). For some of these results: For at least one compound, name, drawing or mass did not settle the structure. Starred links: 1 amine or outer side, 2 acyl side, 3 side chain; linkers in the order of their positions; H or OH if unused. Positions of bridges follow the written chain, without caps; N, C: chain ends. Non-standard residues stand in square brackets, D forms with d. Residues, ends and D or L forms follow the SMILES beside them. Nle(6-ylidene) = O=C([C@H](CCCC=[*:3])N[*:1])[*:2]; βAla = NCCC(=O)O
# Experiments:
# Wnt signaling pathway = assay: TOPFLASH reporter gene assay in HEK293T cells; conditions: for inhibition of Wnt reporter activity: Wnt-3a, c=20 μM, t=24 h
# β-catenin = target: T1, β-catenin (Homo sapiens, UniProt P35222); assay: IC50/µM
# T1 construct: a solution of 1 μM β-catenin (aa 1-781) and 40 nM FITC-labeled TCF-4 peptide was prepared; 3C protease recognition site (C); His6 (C); made in house; host or cells: Escherichia coli BL21 (DE3), pET-28a(+); the tracer is a synthetic peptide
SMILES,inhibition of Wnt reporter activity (Wnt signaling pathway),further results
"CC(C)C[C@@H]1NC(=O)[C@H](CC(C)C)NC(=O)[C@H](CO)NC(=O)[C@H](CC(=O)O)NC(=O)[C@@H]2CCCN2C(=O)[C@H]2CCCN2C(=O)[C@H](C(C)C)NC(=O)[C@H](CC(=O)O)NC(=O)[C@H](CC(N)=O)NC(=O)[C@H](CCCNC(=N)N)NC(=O)[C@@H]2CSCCCCSC[C@H](NC1=O)C(=O)N[C@@H](Cc1ccccc1)C(=O)NCCC(=O)NCCC(=O)N[C@@H](C(C)C)C(=O)N2 [A-b5, [βA-V-[C-R-N-D-V-p-P-D-S-L-L-C]-F-βA]/b5] (HELM PEPTIDE1{[bAla].V.C.R.N.D.V.[dP].P.D.S.L.L.C.F.[bAla]}|CHEM1{[C(CC[*:2])C[*:1]]}$PEPTIDE1,CHEM1,3:R3-1:R1|PEPTIDE1,CHEM1,14:R3-1:R2|PEPTIDE1,PEPTIDE1,1:R1-16:R2$$$V2.0)",considerable inhibition,
"CC(C)C[C@@H]1NC(=O)[C@H](CC(C)C)NC(=O)[C@H](CO)NC(=O)[C@H](CC(=O)O)NC(=O)[C@@H]2CCCN2C(=O)[C@H]2CCCN2C(=O)[C@H](C(C)C)NC(=O)[C@H](CC(=O)O)NC(=O)[C@H](CC(N)=O)NC(=O)[C@H](CCCNC(=N)N)NC(=O)[C@@H]2CSCc3ccccc3CSC[C@H](NC1=O)C(=O)N[C@@H](Cc1ccccc1)C(=O)NCCC(=O)NCCC(=O)N[C@@H](C(C)C)C(=O)N2 [A-b7, [βA-V-[C-R-N-D-V-p-P-D-S-L-L-C]-F-βA]/b7] (HELM PEPTIDE1{[bAla].V.C.R.N.D.V.[dP].P.D.S.L.L.C.F.[bAla]}|CHEM1{[c1ccc(C[*:2])c(C[*:1])c1]}$PEPTIDE1,CHEM1,3:R3-1:R1|PEPTIDE1,CHEM1,14:R3-1:R2|PEPTIDE1,PEPTIDE1,1:R1-16:R2$$$V2.0)",considerable inhibition,
"CC(=O)N[C@H](C(=O)N[C@H](C(=O)N[C@@H](CCCNC(=N)N)C(=O)N[C@@H](CC(N)=O)C(=O)N[C@@H](CC(=O)O)C(=O)N[C@H](C(=O)N1CCC[C@@H]1C(=O)N1CCC[C@H]1C(=O)N[C@@H](CC(=O)O)C(=O)N[C@@H](CO)C(=O)N[C@@H](CC(C)C)C(=O)N[C@@H](CC(C)C)C(=O)N[C@H](C(=O)N[C@@H](Cc1ccccc1)C(N)=O)C(C)C)C(C)C)[C@@H](C)O)C(C)C [Peptide 12-1, V T R N D V p P D S L L V F] (HELM PEPTIDE1{[ac].V.T.R.N.D.V.[dP].P.D.S.L.L.V.F.[am]}$$$$V2.0)",,"inhibition in concentration-dependent TOPFLASH assay (Wnt signaling pathway; c=0.512-50 μM, 24 h): Neither monocycle 12 nor linear analog 12-1 displayed inhibition"
"CC(C)C[C@@H]1NC(=O)[C@H](CC(C)C)NC(=O)[C@H](CO)NC(=O)[C@H](CC(=O)O)NC(=O)[C@@H]2CCCN2C(=O)[C@H]2CCCN2C(=O)[C@H](C(C)C)NC(=O)[C@H](CC(=O)O)NC(=O)[C@H](CC(N)=O)NC(=O)[C@H](CCCNC(=N)N)NC(=O)[C@@H]2CCCC=CCCC[C@H](NC1=O)C(=O)N[C@@H](Cc1ccccc1)C(=O)NCCC(=O)NCCC(=O)N[C@@H](C(C)C)C(=O)N2 [St-1, [βA-V-[S5*-R-N-D-V-p-P-D-S-L-L-S5*]-F-βA]] (cyclo([βAla]V[Nle(6-ylidene)]RNDV[dP]PDSLL[Nle(6-ylidene)]F[βAla]); staple 3-14)",,IC50 (β-catenin): ~10 µM
